The text below walks through data of article PMC4866825, “The GIRK1 subunit potentiates G protein activation of cardiac GIRK1/4 hetero-tetramers” (eLife, 2016).

The target in the assay is T1, GIRK1(N217D) with C-terminal PreScission site, eGFP and deca-histidine tag (human) (UniProt P48549).
T1 sequence: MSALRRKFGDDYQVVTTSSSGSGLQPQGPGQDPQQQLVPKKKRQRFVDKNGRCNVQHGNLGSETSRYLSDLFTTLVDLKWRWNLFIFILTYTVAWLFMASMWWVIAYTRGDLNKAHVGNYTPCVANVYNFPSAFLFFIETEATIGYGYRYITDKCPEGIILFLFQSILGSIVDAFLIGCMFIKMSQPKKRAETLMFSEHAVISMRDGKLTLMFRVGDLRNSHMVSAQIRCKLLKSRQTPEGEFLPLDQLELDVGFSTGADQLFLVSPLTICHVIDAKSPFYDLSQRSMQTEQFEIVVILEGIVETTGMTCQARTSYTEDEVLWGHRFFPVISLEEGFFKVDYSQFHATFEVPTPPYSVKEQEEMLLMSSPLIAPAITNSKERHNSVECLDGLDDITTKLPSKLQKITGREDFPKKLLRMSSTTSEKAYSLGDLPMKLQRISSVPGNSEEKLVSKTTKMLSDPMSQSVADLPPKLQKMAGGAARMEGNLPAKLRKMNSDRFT
Nature of the assay: sequential affinity chromatography (co-purification); GIRK1-His and GIRK4-1D4 co-expressed in HEK293S GnTI- cells, solubilized in 4% DM; Talon Co2+ resin (His10 on GIRK1), eluted with 200 mM imidazole, then 1D4 affinity resin (1D4 tag on GIRK4); buffer A: 50 mM HEPES-KOH pH 7.0, 150 mM KCl, 0.4% DM; 4°C.

No constants are given. Whether binding was seen depends on the method and setting. Some results given as binding are weak or reduced against the parent protein; the word gives no strength. Where a sequence is shown, tags or fusion partners need not be part of it.

B1: GIRK4-1D4 (human full-length GIRK4 with C-terminal PreScission site, eGFP and 1D4 peptide tag) (natural protein, UniProt P48544 1-419, looked up)
chain: MAGDSRNAMNQDMEIGVTPWDPKKIPKQARDYVPIATDRTRLLAEGKKPRQRYMEKSGKCNVHHGNVQETYRYLSDLFTTLVDLKWRFNLLVFTMVYTVTWLFFGFIWWLIAYIRGDLDHVGDQEWIPCVENLSGFVSAFLFSIETETTIGYGFRVITEKCPEGIILLLVQAILGSIVNAFMVGCMFVKISQPKKRAETLMFSNNAVISMRDEKLCLMFRVGDLRNSHIVEASIRAKLIKSRQTKEGEFIPLNQTDINVGFDTGDDRLFLVSPLIISHEINQKSPFWEMSQAQLHQEEFEVVVILEGMVEATGMTCQARSSYMDTEVLWGHRFTPVLTLEKGFYEVDYNTFHDTYETNTPSCCAKELAEMKREGRLLQYLPSPPLLGGCAEAGLDAEAEQNEEDEPKGLGGSREARGSV
notes: G protein gated inward rectifier K+ channel subunit GIRK4, human, full length; also called 1D4-tagged GIRK4; GIRK4 subunit; source: HEK293S GnTI- cells, BacMam transduced together with GIRK1-His (1:1), solubilized in DM; not shown: eGFP, C-terminal, kept; 1D4 peptide, C-terminal, kept
As to B1, the binding entry is recorded as “binds”.
